# Experimental data from PubChem BioAssay AID504467 (National Center for Advancing Translational Sciences (NCATS), 2011).
# The whole screen tested about 330,000 compounds, of which about 7,700 (2.3%) were called active. The shares of active, inactive and inconclusive entries below differ from those in the screen. Calls follow the shape of the dose curve; as a rule, active = well fitted inhibition curve with a large enough effect; inconclusive = small, poorly fitted or top-dose-only effect, or effect the other way; inactive = flat fitted curve, though single readings scatter. Potencies of inconclusive entries are doubtful fits and often do not repeat.
# Test: qHTS screen for small molecules that inhibit ELG1-dependent DNA repair in human embryonic kidney (HEK293T) cells expressing luciferase-tagged ELG1; also: nearly all actives have a fitted effect of over 55% in size
# Settings: HEK293T ELG1-luciferase reporter, luminescence, 16 h, DNA damage induced by 5-fluorouridine; series mostly up to 46.1 µM
# In short: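 DMSO vehicle served as the neutral condition. Each well held 2,000 cells given 5-fluorouridine plus compound; after 16 hr at 37 °C/5% CO2, ONE-Glo was added and luciferase measured 30 min later.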
# Potency is read from the fitted curve at half-maximal effect.
row,Structure (SMILES),Potency
1,CC(C)[C@H](NC(=O)c1ccccc1F)C(=O)Nc1nc2c(s1)CCCC2,"inconclusive: 2.91 µM [activator, full curve, poor fit]"
2,CCOc1cc(/C=C2/C(=O)ON=C2C)cc(Br)c1O,inactive
3,COc1ccc(-c2c(C)nn3c(N)c(-c4ccccc4)cnc23)cc1OC,inactive
4,COc1ccccc1NC(=O)c1ccc(S(=O)(=O)N(C)c2ccccc2OC)cc1,"inconclusive: 20.6 µM [inhibitor, partial curve]"
5,COc1cccc(OCc2nnc(SCC(=O)N3c4ccccc4Sc4ccc(Cl)cc43)o2)c1,inactive
6,CCn1cc(C(=O)NCc2ccc(C)cc2)c(=O)c2cc(S(=O)(=O)N(C)C)ccc21,active: 20.6 µM
7,CN(C)CCCn1c(=S)[nH]c2sc3c(c2c1=O)CCCC3,inactive
8,CCCCS/C(N)=N/N=C/c1ccccc1O,"inconclusive: 13 µM [activator, partial curve]"
9,Cc1cc(C)n(-c2ccc(C(=O)Nc3ccc(C)c(S(=O)(=O)N(C)C)c3)cc2)n1,active: 18.4 µM
10,Cc1c(NC(=O)C(C)Oc2ccccc2F)c(=O)n(-c2ccccc2)n1C (configuration not stated),inactive
11,O=C(N/N=C1/SCC(=O)N1Cc1ccco1)c1ccccc1F,"inconclusive: 14.6 µM [activator, partial curve, poor fit]"
12,CCOC(=O)c1sc(N2C(=O)C(O)=C(C(=O)c3ccco3)C2c2cccc([N+](=O)[O-])c2)nc1C (configuration not stated),"inconclusive: 16.4 µM [inhibitor, partial curve, poor fit]"
13,COC(=O)c1sc(NC(=O)/C=C/c2ccccc2Cl)nc1C,inactive
14,C/C(=N\OC(=O)c1ccccc1)c1cc(-c2ccc(Cl)cc2)no1,"inconclusive: 9.2 µM [activator, partial curve]"
15,CN(CC(=O)Nc1c(F)cccc1F)Cc1cccs1,inactive
16,C=C(C)c1cccc(C(C)(C)NC(=O)Nc2cccnc2)c1,"inconclusive: 11.6 µM [inhibitor, partial curve, poor fit]"
17,COc1ccccc1NC(=O)c1ccc(N)cc1,"inconclusive: 18.4 µM [activator, partial curve, poor fit]"
18,COCC(=O)OCC(=O)Nc1ccc(Cl)cc1[N+](=O)[O-],"inconclusive: 29.1 µM [activator, single point]"
19,CCOc1ccccc1NC(=O)CSc1nc2cc(O)ccc2c(=O)n1-c1ccc(OC)c(OC)c1,"inconclusive: 29.1 µM [inhibitor, single point]"
20,O=C(NNc1nc2c(F)cccc2s1)C1COc2ccccc2O1 (configuration not stated),inactive
21,COc1ccc(-n2nnc3c(SCC(=O)c4ccccc4)ncnc32)cc1,inactive
22,COCCCNC(=O)Cn1c(=O)n(CCCCCC(=O)Nc2ccccc2)c(=O)c2sccc21,"inconclusive: 20.6 µM [activator, single point]"
23,CN(C)c1ccc(-c2nc3ccccn3c2/N=C/c2ccc(Br)cc2)cc1,"inconclusive: 2.31 µM [activator, partial curve]"
24,COc1cc2c(cc1OC)-c1c(OC)c(OC)cc3ccnc(c13)C2=O,"inconclusive: 4.11 µM [inhibitor, full curve]"

# Molecules above that contain two or more sulfur atoms (two):
row,Structure (SMILES),Potency
5,COc1cccc(OCc2nnc(SCC(=O)N3c4ccccc4Sc4ccc(Cl)cc43)o2)c1,inactive
7,CN(C)CCCn1c(=S)[nH]c2sc3c(c2c1=O)CCCC3,inactive

# As a short view, three of the compounds above.
row,Structure (SMILES),Potency
19,CCOc1ccccc1NC(=O)CSc1nc2cc(O)ccc2c(=O)n1-c1ccc(OC)c(OC)c1,"inconclusive: 29.1 µM [inhibitor, single point]"
20,O=C(NNc1nc2c(F)cccc2s1)C1COc2ccccc2O1 (configuration not stated),inactive
21,COc1ccc(-n2nnc3c(SCC(=O)c4ccccc4)ncnc32)cc1,inactive

# Continued.

row,Structure (SMILES),Potency
1,CSc1cccc(NC(=O)c2ccc(CN3CCc4ccccc4C3)cc2)c1,inactive
2,Oc1ccc(F)cc1-c1cc(-c2ccc3c(c2)OCCO3)n[nH]1,"inconclusive: 2.06 µM [activator, full curve]"
3,CCOc1ccc(S(=O)(=O)Nc2ccc(OC)nc2)cc1,"inconclusive: 0.0461 µM [inhibitor, full curve]"
4,S=c1[nH]ccn1-c1cccc(Cl)c1,inactive
5,O=C(Cn1cnc2ccccc21)N/N=C/C(Br)=C/c1ccccc1,inactive
6,Cc1cc(C)c2nc(N3CCCC(C(=O)NC4CCCC4)C3)sc2c1 (configuration not stated),"inconclusive: 18.3 µM [activator, partial curve]"
7,S=C(Nc1ccccn1)NC1CCCCC1,"inconclusive: 29.1 µM [inhibitor, single point]"
8,Cc1cccc(-n2c(SCC(=O)N3CC(=O)Nc4ccccc43)nc3ccccc3c2=O)c1,"inconclusive: 29.1 µM [inhibitor, single point]"
9,CCOC(=O)c1ccccc1NC(=O)CSc1ccc(-c2cccnc2)nn1,"inconclusive: 23.1 µM [inhibitor, single point]"
10,CCOc1ccccc1NC(=O)CSc1ccc(-c2sc(C)nc2C)nn1,"inconclusive: 23.1 µM [inhibitor, single point]"
11,O=C1/C(=C/c2cccnc2)CCc2c1[nH]c1ccccc21,inactive
12,O=C(COC(=O)C1=NN(c2ccccc2)C(=O)CC1)Nc1ccc([N+](=O)[O-])cc1C(F)(F)F,inactive
13,O=c1[nH]cnc2sc(-c3ccccc3)cc12,"inconclusive: 20.6 µM [activator, partial curve]"
14,O=C(/C=C/N1CCOCC1)c1ccc(-c2ccccc2)cc1,"inconclusive: 10.3 µM [activator, partial curve]"
15,Cc1ccc(NC(=O)C(c2ccccc2)N2CCN(CC(=O)NC3CC3)CC2)cc1 (configuration not stated),"inconclusive: 20.6 µM [activator, single point]"
16,NS(=O)(=O)c1ccc(NC(=O)c2ccc(Cl)c(S(=O)(=O)NCc3ccco3)c2)cc1,inactive
17,COC(=O)[C@]1(Cc2ccccc2)N[C@H](CN(C)C(=O)c2ccc(C)cc2)[C@@H]2C(=O)N(Cc3ccccc3)C(=O)[C@@H]21,"inconclusive: 25.9 µM [inhibitor, single point]"
18,CC1CCCN(c2oc(-c3cccc4ccccc34)nc2C#N)C1 (configuration not stated),"inconclusive: 6.51 µM [activator, partial curve]"
19,Cc1cc(C(=O)NNC(=O)/C=C/c2ccco2)c(C)o1,inactive
20,C/C=C/C(=O)N1c2ccccc2C(C)=CC1(C)C,"inconclusive: 25.9 µM [activator, partial curve, poor fit]"
21,CC(C)NC(=O)c1cc(-c2ccco2)on1,"inconclusive: 23.1 µM [activator, single point]"
22,CCCc1cc(C(=O)Nc2cc(Cl)ccc2O)no1,"inconclusive: 20.6 µM [activator, partial curve]"
23,COCCn1c(C)cc(C(=O)COC(=O)c2ccc3c(c2)NC(=O)CS3)c1C,"inconclusive: 29.1 µM [inhibitor, single point]"
24,Cc1cc(NC(=O)CSCC(=O)Nc2nc3ccccc3s2)no1,"inconclusive: 14.6 µM [activator, single point]"

row,Structure (SMILES),Potency
1,Cc1ccc(C(C)C)c(OCCNCc2ccccc2)c1,inactive
2,Cc1c(C(=O)NC2CC2)oc2ccccc12,"inconclusive: 22.4 µM [activator, single point]"
3,COc1ccc(Cc2c(O)nc(SCC(=O)c3ccc(OC)cc3)[nH]c2=O)cc1,"inconclusive: 29.1 µM [activator, single point]"
4,O=C1/C(=C/C=C/c2ccco2)SC(=S)N1c1ccc(O)cc1,"inconclusive: 25.9 µM [activator, single point]"
5,Cc1ccc(C(=O)NCC(=O)N2CCCC(C(F)(F)F)C2)s1 (configuration not stated),"inconclusive: 29.1 µM [activator, single point]"
6,CC(=O)c1ccc(NC(=O)Cn2c3ccccc3c3nc(=O)cc(C)n32)cc1,inactive
7,Cc1c(C(=O)Nc2nccs2)sc2nc(-c3cccs3)cc(C(F)(F)F)c12,"inconclusive: 35.5 µM [activator, single point]"
8,CC(=NCCc1c(C)[nH]c2ccc(OC(F)(F)F)cc12)C1=C(O)CC(c2ccccc2)CC1=O (configuration not stated),"inconclusive: 14.6 µM [inhibitor, partial curve]"
9,Cc1ccc(C(=O)NCC(=O)NCc2cc(=O)n(C)c(=O)n2C)cc1C,"inconclusive: 20.6 µM [activator, partial curve]"
10,C=CCN(c1ccc(C(=O)NCCCn2ccnc2)cc1)S(C)(=O)=O,inactive
11,Cc1ccc(-n2nc(C)c(/C=N/NC(=O)c3cccs3)c2Cl)cc1,"inconclusive: 9.2 µM [activator, partial curve]"
12,COc1ccc(N(C)S(=O)(=O)c2cccc(C(=O)Nc3cc(OC)ccc3OC)c2)cc1,"inconclusive: 23.1 µM [inhibitor, single point]"
13,O=C(Nc1ccccc1Cl)c1ccc2nc(N3CCOCC3)sc2c1,inactive
14,Clc1ccc2nc(CSc3nncn3-c3ccccc3)cn2c1,inactive
15,CCOC(=O)c1sc(/N=C/c2c(C)[nH]n(-c3ccccc3)c2=O)c(C#N)c1C,"inconclusive: 23.1 µM [activator, partial curve, poor fit]"
16,CN(Cc1cnccn1)C(=O)c1cc(COc2cccc(C(F)(F)F)c2)on1,"inconclusive: 23.1 µM [activator, single point]"
17,Cn1cc([N+](=O)[O-])c(C(=O)Nc2sc3c(c2C#N)CCC3)n1,inactive
18,COc1cc(Cl)c(C)cc1NC(=O)CNC(C)c1ccccc1OC (configuration not stated),"inconclusive: 20.6 µM [inhibitor, single point]"
19,CCN(CC)C(=O)C1CCN(Cc2ccc(OCc3ccccc3)c(OC)c2)CC1,inactive
20,Cc1ccc(CN2C(=O)CSC2c2ccc(F)cc2)cc1 (configuration not stated),inactive
21,CS(=O)(=O)N1CCN(c2ccccc2NC(=S)NC(=O)c2cccs2)CC1,"inconclusive: 20.6 µM [inhibitor, single point]"
22,COCCC(=O)N1CCC(Oc2ccc(C(=O)N3CCCC(CCCO)C3)cc2)CC1 (configuration not stated),inactive
23,Cc1c(C2=CCN(S(=O)(=O)c3ccc(Br)cc3)CC2)c2ccccc2n1C,inactive
24,O=C(Nc1ccc2c(c1)OCCO2)C1CCCN(S(=O)(=O)c2cccs2)C1 (configuration not stated),"inconclusive: 0.92 µM [inhibitor, partial curve, poor fit]"
